No constants are given. Whether binding was seen depends on the method and setting. Some results given as binding are weak or reduced against the parent protein; the word gives no strength.
B1: 1E1v8 (clone in the epitope binning panel) (antibody, V domains shown)
VH: EVQLVESGGGLVQPGGSLRLSCAASGFTFNNYWMTWIRQAPGKGLEWVASITYTGGGTYYPDSVKGRFTISRDDAKSSLYLQMNSLRAEDTAVYYCTRANYYYNTYGGFPYWGQGTLVTVSS
VL: DIQMTQSPSSLSASVGDRVTITCLASEGFSNDLAWYQQKPGKSPKLLIYAASRLQDGVPSRFSGSGSGTDFTLTISSLQPEDFATYFCQQGSKYPLTFGGGTKVEIKR
B2: Ab43 (WO 2018/081075) (antibody, V domains shown)
VH: EVQLVETGGGLIQPGGSLRLSCAASGFTFSFYAMSWVRQAPGKGLEWVSAISGSGGSTYYADSVKGRFTISRDNSKNTLYLQMNSLRAEDTAVYYCARTIHGIRAAYDAFIIWGQGTLVTVSS
VL: EIVLTQSPGTLSLSPGERATLSCRASQSVGINLSWYQQKPGQAPRLLIYGASHRLTGIPDRFSGSGSGTDFTLTISRLEPEDFAVYYCHQYSQPPPFTFGGGTKVEIKR
B3: 158LS (WO 2017/187307) (antibody, V domains shown)
VH: EVQLVESGGGLVQPGGSLRLSCAASGFTFSSYWMYWVRQAPGKGLEWVAAITPNAGEDYYPESVKGRFTISRDNAKNSLYLQMNSLRAEDTAVYYCARGHYYYTSYSLGYWGQGTLVTVSS
VL: DIQMTQSPSSLSASVGDRVTITCKASQNINKHLDWYQQKPGKAPKLLIYFTNNLQTGVPSRFSGSGSGTDFTLTISSLQPEDFATYYCFQYNQGWTFGGGTKVEIKR
B4: RG18 (WO 2014/164959) (antibody, V domains shown)
VH: EVQLVESGGNLEQPGGSLRLSCTASGFTFSRSAMNWVRRAPGKGLEWVSGISGSGGRTYYADSVKGRFTISRDNSKNTLYLQMNSLSAEDTAAYYCAKDSYTTSWYGGMDVWGHGTTVTVSS
VL: DIQMTQSPSSVSASVGDRVTITCRASQGIFSWLAWYQQKPGKAPKLLIYAASSLQSGVPSRFSGSGSGTDFTLTISSLQPEDFAIYYCQQANSVPITFGQGTRLEIK
B5: RG3 (WO 2014/164959) (antibody, V domains shown)
VH: QVLLVQSGAEVKKPGATVKVSCKASGSTFTGYYMHWVRQAPGQGLEWMGWINPNNGGTNYAQKFQGRVTMTRDTSISTAYMELSRLRSDDTAVYYCARELRYNWKSWGQGTLVTVSS
VL: EIVLTQSPGTLSLSPGERVTLSCRASQSVGRPYLAWYQQIPGQAPRLLIYGASSRATDIPDRFSGNGSGTDFTLTISRLEPEDFAVYYCQQYDNSPYTFGQGTRLEIK
B6: 3F10 (antibody, V domains shown)
VH: QVQLEESGPGLVQPSQTLSLTCTVSGFSLTSQNVHWVRQPPGKGLEWMGRMRFNGDTSYNSTLKSRLSISRDTSKNQVFLRLNSLQTDDTGTYYCARQRDNYGSYYFDDWGQGIMVTVSS
VL: DTVLTQSPALAVSPGERVTISCRASESVLTLLNWYQQKPGQHPKLLIYLASHLESGVPARFSGRGSGTDFTLTIDPVEADDTASYYCQQSWIDPWTFGGGTTLELK

Experiments:
human IL-33 [1] = target: T1, human IL-33 (human, UniProt O95760 112-270, limits assumed); experiment: SPR sandwich binning: human IL-33 (100 nM) bound to immobilized 640087-7B, then antibody injected at 10 ug/ml for 4 min
T1 sequence (looked up): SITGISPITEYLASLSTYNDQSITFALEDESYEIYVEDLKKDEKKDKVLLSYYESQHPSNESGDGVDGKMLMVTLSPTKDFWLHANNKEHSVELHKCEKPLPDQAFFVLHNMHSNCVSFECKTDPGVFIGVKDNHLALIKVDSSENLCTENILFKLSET

human IL-33 [2] = target: T1, human IL-33; experiment: SPR epitope binning (array SPRi): antibody amine-coupled to the chip, human IL-33 injected at 100 nM for 4 min, 25 C
human IL-33 [3] = target: T1, human IL-33; experiment: SPR sandwich binning: human IL-33 (100 nM) bound to immobilized 1E1v8, then antibody injected at 10 ug/ml for 4 min

Binder	binding (human IL-33 [1])	binding (human IL-33 [2])	binding (human IL-33 [3])
B1	binds	binds	
B2	binds	binds	
B3	binds		
B4	binds		
B5			binds
B6			binds

— patent US20210284725A1 (Genentech, published 2021)
